Experimental data published in paper doi:10.1101/2021.05.17.442671.
These are yes or no findings as the source states them, for the method shown.

By UniProt entry, the sequences of proteins in these tests, tags left out.
UniProt Q1JPP8: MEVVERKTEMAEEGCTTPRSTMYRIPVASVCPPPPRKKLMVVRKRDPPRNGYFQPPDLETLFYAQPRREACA
UniProt P25859: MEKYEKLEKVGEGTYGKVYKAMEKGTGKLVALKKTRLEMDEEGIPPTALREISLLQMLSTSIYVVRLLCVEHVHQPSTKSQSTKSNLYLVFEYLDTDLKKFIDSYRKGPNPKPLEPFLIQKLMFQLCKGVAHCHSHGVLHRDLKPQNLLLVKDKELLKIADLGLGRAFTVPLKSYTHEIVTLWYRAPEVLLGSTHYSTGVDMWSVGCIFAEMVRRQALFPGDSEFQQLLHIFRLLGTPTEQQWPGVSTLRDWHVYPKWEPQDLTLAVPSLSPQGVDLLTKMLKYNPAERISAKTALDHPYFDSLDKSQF

Target: SIAMESE-RELATED4 (SMR4) (Arabidopsis) (UniProt Q1JPP8)
Assay: two-hybrid

CDKB1;1 (from UniProt P25859 1-309)
binding: no binding
